Source: paper PMC6738421
No constants are given. Whether binding was seen depends on the method and setting.

The chains behind the UniProt entries cited, without tags or fusion partners. Where a name states a change or a piece, a line headed by the entry shows the natural chain unless it says otherwise. A line that says so, or that is headed by a name, gives the form on record, which may keep a tag or linker.
Arginyl-tRNA-protein transferase Ate1, isoform Ate1-3 (Q9Z2A5-3, form named): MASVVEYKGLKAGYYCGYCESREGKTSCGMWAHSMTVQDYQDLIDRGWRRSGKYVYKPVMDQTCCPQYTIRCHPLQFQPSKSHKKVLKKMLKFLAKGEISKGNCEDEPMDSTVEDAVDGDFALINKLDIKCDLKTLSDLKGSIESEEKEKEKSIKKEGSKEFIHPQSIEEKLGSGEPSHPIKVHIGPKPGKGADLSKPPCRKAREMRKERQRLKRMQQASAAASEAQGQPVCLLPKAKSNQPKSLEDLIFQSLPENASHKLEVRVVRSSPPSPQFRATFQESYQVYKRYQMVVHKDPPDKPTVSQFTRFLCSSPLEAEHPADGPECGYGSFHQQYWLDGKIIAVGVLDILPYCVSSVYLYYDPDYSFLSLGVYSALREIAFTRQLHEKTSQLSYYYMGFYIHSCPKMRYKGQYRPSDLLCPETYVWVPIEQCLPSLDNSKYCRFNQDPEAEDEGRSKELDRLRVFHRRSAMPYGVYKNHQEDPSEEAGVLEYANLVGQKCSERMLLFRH

Tests used:
[1] = target: Beta-amyloid peptide Aβ42; assay: ELISA; as a3 (anti-Aβ36-42 capture, anti-Aβ1-17 detection) but Ate1 added together with tRNA (Arg-tRNA in the methods); both purified
[2] = target: Beta-amyloid peptide Aβ42; assay: ELISA; as a1 (anti-Aβ1-17 capture, anti-Aβ36-42 detection) but Ate1 added together with tRNA (Arg-tRNA in the methods); both purified

binding [1]	binding [2]	Substance
no binding (condition: with tRNA)		Arginyl-tRNA-protein transferase Ate1, isoform Ate1-3 (from UniProt Q9Z2A5-3 1-509) (enzyme)
no binding (condition: with tRNA)	no binding (condition: with tRNA)	Arginyl-tRNA-protein transferase Ate1, isoform Ate1-1 (from UniProt Q9Z2A5-1 1-516) (enzyme)
